The list is a part of this screen's results and no random one: it is rich in T/C values a quarter to a half above the control, in often repeated tests (any T/C) and in doses without a T/C. Further doses and runs are listed elsewhere. T/C: endpoint of the treated group in % of that of the vehicle group. Some entries give survivors of the animals treated and no T/C: the source files T/C as zero there, which appears to mark a toxic dose or a test without result, not a measured value. Some doses without a T/C left all or most animals alive at the check, yet need not have been tolerated: survival well below the control is almost never listed, so the zero probably covers shortened survival too. Survivors were counted at the toxicity check, usually on the fifth day, unless a day is given; later deaths do not show. Schedules are NCI's codes, read here as Q, the interval in days (D) or hours (H), X, the number of doses. Some entries hold several experiments; the values are given in rising order. For survival time, this PubChem deposit counts one and a half times the control or more as active, and values a quarter to a half above the control carry no call in these data; other NCI protocols may use other cut-offs. Additions like (4×) give the number of equal values in this list. Some T/C values carry the count of animals alive at the toxicity check (mostly the fifth day); without a count, all were alive then.
Test system: P388 leukemia ip, CD2F1 mice, survival T/C
Assay: NCI In Vivo Anticancer Drug Screen. Data for tumor model P388 Leukemia (intraperitoneal) in CD2F1 (CDF1) mice
Conditions: T/C endpoint: median survival time, higher T/C = longer survival
[1] = dose: 12.0 mg/kg/injection, schedule: Q04DX003 (ip), vehicle: saline

## COc1cccc2c1C(=O)c1c(O)c3c(c(O)c1C2=O)C[C@@](O)(C(=O)CO)C[C@@H]3OC1CC(N)C(O)C(C)O1 (some centres not stated)
dose: 10.0 mg/kg/injection, schedule: Q01DX001 (ip), vehicle: saline, evaluated on day 30
  T/C: 128, 144, 153, 158, 163, 168, 171, 173, 183, 185, 187, 188, 189, 191, 200, 202, 205, 207, 210 (3×), 211, 214, 215, 217, 218 (2×), 222, 223 (2×), 225, 227, 230, 233, 234, 236, 237 (2×), 238, 240 (2×), 242, 245 (2×), 247, 248 (2×), 250, 258, 267, 273, 274, 275, 277, 283, 294 % of control
dose: 10.0 mg/kg/injection, schedule: Q01DX001 (ip), vehicle: saline, evaluated on day 44
  T/C: 247 % of control
dose: 10.0 mg/kg/injection, schedule: Q01DX001 (ip), vehicle: saline, evaluated on day 45
  T/C: 166 [9 of 10 alive], 171, 177, 205, 214, 225, 233, 241, 268, 346 % of control
dose: 10.0 mg/kg/injection, schedule: Q01DX001 (ip), vehicle: saline, evaluated on day 46
  T/C: 196 % of control
dose: 10.0 mg/kg/injection, schedule: Q01DX001 (ip), vehicle: saline, evaluated on day 47
  T/C: 209 and 210 % of control
dose: 10.0 mg/kg/injection, schedule: Q01DX001 (ip), vehicle: saline, evaluated on day 56
  T/C: 238 % of control
dose: 10.0 mg/kg/injection, schedule: Q01DX001 (ip), vehicle: saline, evaluated on day 60
  T/C: 178, 193, 207, 234, 245, 252, 265, 267, 268, 285, 294 [9 of 10 alive], 321, 324, 348, 571 % of control
dose: 10.0 mg/kg/injection, schedule: Q01DX001 (ip), vehicle: saline
  survivor count: 0 of 6
dose: 10.0 mg/kg/injection, schedule: Q01DX001 (ip), vehicle: water, evaluated on day 5
  T/C: 130 % of control
dose: 10.0 mg/kg/injection, schedule: Q01DX001 (ip), vehicle: water, evaluated on day 30
  T/C: 209, 245, 315 % of control
dose: 10.0 mg/kg/injection, schedule: Q01DX001 (ip), vehicle: water, evaluated on day 45
  T/C: 142, 145, 176, 195, 208 [5 of 6 alive], 214, 225, 247 % of control
dose: 10.0 mg/kg/injection, schedule: Q04DX003 (ip), vehicle: saline, evaluated on day 8
  T/C: 194 % of control
dose: 10.0 mg/kg/injection, schedule: Q04DX003 (ip), vehicle: saline, evaluated on day 9
  T/C: 167 % of control
dose: 10.0 mg/kg/injection, schedule: Q04DX003 (ip), vehicle: saline, evaluated on day 45
  T/C: 90 and 97 % of control
dose: 10.0 mg/kg/injection, schedule: Q04DX003 (ip), vehicle: saline
  survivor count: 10 of 10 and 6 of 6
dose: 11.25 mg/kg/injection, schedule: Q01DX001 (iv), vehicle: saline
  T/C: 148 % of control
[1]
  T/C: 137, 148, 155 [survivors not given], 194 % of control [survivors not given]
  survivor count: 7 of 8
dose: 12.0 mg/kg/injection, schedule: Q04DX003 (ip), vehicle: water, evaluated on day 30
  T/C: 180 % of control
dose: 12.0 mg/kg/injection, schedule: Q04DX003 (ip), vehicle: water, evaluated on day 40
  T/C: 136 % of control
dose: 12.0 mg/kg/injection, schedule: Q04DX003 (ip), vehicle: water, evaluated on day 45
  T/C: 187 % of control
dose: 12.0 mg/kg/injection, schedule: Q04DX003 (ip), vehicle: water
  survivor count: 6 of 8
dose: 12.5 mg/kg/injection, schedule: Q01DX001 (ip), vehicle: saline, evaluated on day 5
  T/C: 260 and 297 % of control
dose: 12.5 mg/kg/injection, schedule: Q01DX001 (ip), vehicle: saline, evaluated on day 7
  T/C: 200 % of control
dose: 12.5 mg/kg/injection, schedule: Q01DX001 (ip), vehicle: saline, evaluated on day 9
  T/C: 173 % of control [8 of 9 alive]
dose: 12.5 mg/kg/injection, schedule: Q01DX001 (ip), vehicle: saline, evaluated on day 60
  T/C: 236, 284, 540, 545 % of control
dose: 12.5 mg/kg/injection, schedule: Q01DX001 (ip), vehicle: saline
  survivor count: 5 of 10
dose: 12.5 mg/kg/injection, schedule: Q01DX009 (ip), vehicle: water
  survivor count: 4 of 6
dose: 15.0 mg/kg/injection, schedule: Q01DX001 (ip), vehicle: saline, evaluated on day 5
  T/C: 156, 186, 557 % of control
dose: 15.0 mg/kg/injection, schedule: Q01DX001 (ip), vehicle: saline, evaluated on day 6
  T/C: 106 and 200 % of control
dose: 15.0 mg/kg/injection, schedule: Q01DX001 (ip), vehicle: saline, evaluated on day 7
  T/C: 198 % of control
dose: 15.0 mg/kg/injection, schedule: Q01DX001 (ip), vehicle: saline, evaluated on day 9
  T/C: 198 % of control (2×)
dose: 15.0 mg/kg/injection, schedule: Q01DX001 (ip), vehicle: saline, evaluated on day 11
  T/C: 162 % of control
dose: 15.0 mg/kg/injection, schedule: Q01DX001 (ip), vehicle: saline, evaluated on day 20
  T/C: 147 [2 of 4 alive] and 192 % of control
dose: 15.0 mg/kg/injection, schedule: Q01DX001 (ip), vehicle: saline, evaluated on day 23
  T/C: 214 % of control
dose: 15.0 mg/kg/injection, schedule: Q01DX001 (ip), vehicle: saline, evaluated on day 30
  T/C: 152, 156, 169, 173, 175, 183, 191, 191 [4 of 5 alive], 198, 200, 215 (2×), 217, 221, 222, 231, 236, 237, 239, 240, 242, 245 (2×), 247, 248, 250 (2×), 254 (2×), 255, 257, 260, 263, 264 (2×), 265, 267, 270, 272 (2×), 273, 274, 275, 277, 279, 283, 284, 288, 291, 294 (2×), 295, 297, 300, 306, 329 % of control
dose: 15.0 mg/kg/injection, schedule: Q01DX001 (ip), vehicle: saline, evaluated on day 44
  T/C: 419 % of control
dose: 15.0 mg/kg/injection, schedule: Q01DX001 (ip), vehicle: saline, evaluated on day 45
  T/C: 191, 200 [7 of 10 alive], 209, 255, 261, 405, 412 (2×), 432 % of control
dose: 15.0 mg/kg/injection, schedule: Q01DX001 (ip), vehicle: saline, evaluated on day 46
  T/C: 273 % of control
dose: 15.0 mg/kg/injection, schedule: Q01DX001 (ip), vehicle: saline, evaluated on day 47
  T/C: 275 and 289 % of control
dose: 15.0 mg/kg/injection, schedule: Q01DX001 (ip), vehicle: saline, evaluated on day 56
  T/C: 292 % of control
dose: 15.0 mg/kg/injection, schedule: Q01DX001 (ip), vehicle: saline, evaluated on day 60
  T/C: 248, 271, 273, 290, 304, 306, 317, 331 [9 of 10 alive], 392, 401, 545 [9 of 10 alive], 612 % of control
dose: 15.0 mg/kg/injection, schedule: Q01DX001 (ip), vehicle: saline
  survivor count: 0 of 6, 5 of 10, 6 of 10
dose: 15.0 mg/kg/injection, schedule: Q01DX001 (iv), vehicle: saline
  T/C: 146 % of control
dose: 16.0 mg/kg/injection, schedule: Q01DX001 (ip), vehicle: other
  survivor count: 1 of 10
dose: 16.0 mg/kg/injection, schedule: Q01DX001 (ip), vehicle: saline, evaluated on day 3
  T/C: 230 % of control
dose: 16.0 mg/kg/injection, schedule: Q01DX001 (ip), vehicle: saline, evaluated on day 5
  T/C: 68, 93, 96, 138, 182, 183, 201, 203 % of control
dose: 16.0 mg/kg/injection, schedule: Q01DX001 (ip), vehicle: saline, evaluated on day 7
  T/C: 77, 80 [2 of 4 alive], 89, 194 % of control
dose: 16.0 mg/kg/injection, schedule: Q01DX001 (ip), vehicle: saline, evaluated on day 9
  T/C: 183 and 212 % of control
dose: 16.0 mg/kg/injection, schedule: Q01DX001 (ip), vehicle: saline, evaluated on day 30
  T/C: 201 (2×) and 291 % of control
dose: 16.0 mg/kg/injection, schedule: Q01DX001 (ip), vehicle: saline, evaluated on day 35
  T/C: 190 % of control
dose: 16.0 mg/kg/injection, schedule: Q01DX001 (ip), vehicle: saline, evaluated on day 45
  T/C: 171 % of control

Reference: PubChem BioAssay AID330 (DTP/NCI, 2004)
